These are yes or no findings as the source states them, for the method shown. Binding seen in cells or lysates may run through a third protein. Here binding means that the protein was enriched with, or labelled near, the bait; the list need not be complete.
Molecular target: NIMA-related kinase 7 (NEK7), endogenous, HepG2 mitochondria (human (endogenous in HepG2)) (UniProt Q8TDX7)
Experiment: affinity purification with mass spectrometry; mitochondrial proteins purified from HepG2 cells; co-immunoprecipitation with NEK7 antibody (Abcam) against IgG, agarose magnetic beads, gel, trypsin, LC-MS/MS

Protein sequences, listed by entry. Tags and fused reporters are not part of them.
UniProt Q8TDX7: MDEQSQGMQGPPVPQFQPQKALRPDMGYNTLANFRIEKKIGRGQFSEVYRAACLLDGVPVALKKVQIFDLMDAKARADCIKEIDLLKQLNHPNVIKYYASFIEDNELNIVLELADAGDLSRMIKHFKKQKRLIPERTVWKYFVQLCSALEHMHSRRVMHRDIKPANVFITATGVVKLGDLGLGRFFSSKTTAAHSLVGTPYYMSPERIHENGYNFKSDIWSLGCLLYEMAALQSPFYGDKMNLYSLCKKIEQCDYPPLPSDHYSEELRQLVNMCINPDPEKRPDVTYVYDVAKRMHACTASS

| Binder | binding |
| --- | --- |
| succinate dehydrogenase complex iron sulfur subunit B (SDHB), endogenous, HepG2 mitochondria (protein, UniProt P21912 29-280) AQTAAATAPRIKKFAIYRWDPDKAGDKPHMQTYEVDLNKCGPMVLDALIKIKNEVDSTLTFRRSCREGICGSCAMNINGGNTLACTRRIDTNLNKVSKIYPLPHMYVIKDLVPDLSNFYAQYKSIEPYLKKKDESQEGKQQYLQSIEEREKLDGLYECILCACCSTSCPSYWWNGDKYLGPAVLMQAYRWMIDSRDDFTEERLAKLQDPFSLYRCHTIMNCTRTCPKGLNPGKAIAEIKKMMATYKEKKASV | binds |
| TDIF2 (protein, UniProt Q5QJE6 1-756) MVVTRSARAKASIQAASAESSGQKSFAANGIQAHPESSTGSDARTTAESQTTGKQSLIPRTPKARKRKSRTTGSLPKGTEPSTDGETSEAESNYSVSEHHDTILRVTRRRQILIACSPVSSVRKKPKVTPTKESYTEEIVSEAESHVSGISRIVLPTEKTTGARRSKAKSLTDPSQESHTEAISDAETSSSDISFSGIATRRTRSMQRKLKAQTEKKDSKIVPGNEKQIVGTPVNSEDSDTRQTSHLQARSLSEINKPNFYNNDFDDDFSHRSSENILTVHEQANVESLKETKQNCKDLDEDANGITDEGKEINEKSSQLKNLSELQDTSLQQLVSQRHSTPQNKNAVSVHSNLNSEAVMKSLTQTFATVEVGRWNNNKKSPIKASDLTKFGDCGGSDDEEESTVISVSEDMNSEGNVDFECDTKLYTSAPNTSQGKDNSVLLVLSSDESQQSENSENEEDTLCFVENSGQRESLSGDTGSLSCDNALFVIDTTPGMSADKNFYLEEEDKASEVAIEEEKEEEEDEKSEEDSSDHDENEDEFSDEEDFLNSTKAKLLKLTSSSIDPGLSIKQLGGLYINFNADKLQSNKRTLTQIKEKKKNELLQKAVITPDFEKNHCVPPYSESKYQLQKKRRKERQKTAGDGWFGMKAPEMTNELKNDLKALKMRASMDPKRFYKKNDRDGFPKYFQIGTIVDNPADFYHSRIPKKQRKRTIVEELLADSEFRRYNRRKYSEIMAEKAANAAGKKFRKKKKFRN | binds |
